From paper doi:10.1101/2020.06.25.171694 come the findings set out here.

No constants are given. Whether binding was seen depends on the method and setting. In cells and extracts the contact can be indirect. Some entries that bind do so weakly or less than the wild type. Sequences can lack the tags named with a protein.

Experiment [1] has as its target T1, Heh1-S^GFP 1-638aa (S. cerevisiae) (UniProt Q03707).
T1 sequence: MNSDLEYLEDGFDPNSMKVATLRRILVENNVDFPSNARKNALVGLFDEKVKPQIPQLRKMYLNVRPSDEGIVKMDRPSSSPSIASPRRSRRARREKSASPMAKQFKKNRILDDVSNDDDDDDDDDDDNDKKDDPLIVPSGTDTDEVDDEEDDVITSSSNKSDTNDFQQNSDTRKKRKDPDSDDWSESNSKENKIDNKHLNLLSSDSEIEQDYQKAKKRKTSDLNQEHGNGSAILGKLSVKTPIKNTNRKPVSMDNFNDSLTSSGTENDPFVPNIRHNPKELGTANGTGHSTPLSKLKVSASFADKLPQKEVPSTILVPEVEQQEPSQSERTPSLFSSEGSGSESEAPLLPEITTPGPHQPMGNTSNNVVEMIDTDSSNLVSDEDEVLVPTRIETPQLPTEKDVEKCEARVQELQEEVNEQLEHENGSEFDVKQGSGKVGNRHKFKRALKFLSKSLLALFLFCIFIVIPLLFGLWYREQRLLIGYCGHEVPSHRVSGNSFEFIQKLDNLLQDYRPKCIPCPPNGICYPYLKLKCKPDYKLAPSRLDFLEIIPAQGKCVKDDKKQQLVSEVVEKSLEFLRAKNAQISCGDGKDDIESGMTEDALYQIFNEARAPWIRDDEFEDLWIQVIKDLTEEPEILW
The experiment in a line: co-IP.

In experiment [2] the target is T2, Heh1-L^GFP (S. cerevisiae), Q03707.
T2 chain: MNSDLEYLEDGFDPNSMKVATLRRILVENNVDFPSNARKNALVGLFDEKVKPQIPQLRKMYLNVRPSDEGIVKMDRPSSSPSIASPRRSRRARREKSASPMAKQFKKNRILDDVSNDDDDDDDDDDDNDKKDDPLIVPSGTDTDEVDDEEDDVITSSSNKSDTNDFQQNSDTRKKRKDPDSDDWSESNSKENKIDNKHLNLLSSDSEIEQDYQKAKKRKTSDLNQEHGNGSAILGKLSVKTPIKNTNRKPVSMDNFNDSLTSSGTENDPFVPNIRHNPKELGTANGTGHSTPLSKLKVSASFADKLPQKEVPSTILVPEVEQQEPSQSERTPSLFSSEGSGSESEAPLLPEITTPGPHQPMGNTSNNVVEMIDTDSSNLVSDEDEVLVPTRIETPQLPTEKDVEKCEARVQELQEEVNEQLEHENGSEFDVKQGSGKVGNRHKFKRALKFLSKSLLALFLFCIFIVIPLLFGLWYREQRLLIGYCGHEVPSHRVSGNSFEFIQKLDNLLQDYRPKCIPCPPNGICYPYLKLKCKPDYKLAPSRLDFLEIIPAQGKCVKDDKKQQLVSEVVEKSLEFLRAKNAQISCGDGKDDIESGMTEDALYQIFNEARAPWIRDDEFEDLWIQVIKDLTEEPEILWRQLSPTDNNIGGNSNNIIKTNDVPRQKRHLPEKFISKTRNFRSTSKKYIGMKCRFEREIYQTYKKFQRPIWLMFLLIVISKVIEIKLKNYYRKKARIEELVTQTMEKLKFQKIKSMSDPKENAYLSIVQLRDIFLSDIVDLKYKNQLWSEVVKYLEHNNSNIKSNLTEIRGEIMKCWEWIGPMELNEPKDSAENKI
The experiment is described as follows: co-IP. The following applies: remark: other sources report otherwise.

B1: Heh1-L^6HA (protein, UniProt Q03707 1-834)
chain: MNSDLEYLEDGFDPNSMKVATLRRILVENNVDFPSNARKNALVGLFDEKVKPQIPQLRKMYLNVRPSDEGIVKMDRPSSSPSIASPRRSRRARREKSASPMAKQFKKNRILDDVSNDDDDDDDDDDDNDKKDDPLIVPSGTDTDEVDDEEDDVITSSSNKSDTNDFQQNSDTRKKRKDPDSDDWSESNSKENKIDNKHLNLLSSDSEIEQDYQKAKKRKTSDLNQEHGNGSAILGKLSVKTPIKNTNRKPVSMDNFNDSLTSSGTENDPFVPNIRHNPKELGTANGTGHSTPLSKLKVSASFADKLPQKEVPSTILVPEVEQQEPSQSERTPSLFSSEGSGSESEAPLLPEITTPGPHQPMGNTSNNVVEMIDTDSSNLVSDEDEVLVPTRIETPQLPTEKDVEKCEARVQELQEEVNEQLEHENGSEFDVKQGSGKVGNRHKFKRALKFLSKSLLALFLFCIFIVIPLLFGLWYREQRLLIGYCGHEVPSHRVSGNSFEFIQKLDNLLQDYRPKCIPCPPNGICYPYLKLKCKPDYKLAPSRLDFLEIIPAQGKCVKDDKKQQLVSEVVEKSLEFLRAKNAQISCGDGKDDIESGMTEDALYQIFNEARAPWIRDDEFEDLWIQVIKDLTEEPEILWRQLSPTDNNIGGNSNNIIKTNDVPRQKRHLPEKFISKTRNFRSTSKKYIGMKCRFEREIYQTYKKFQRPIWLMFLLIVISKVIEIKLKNYYRKKARIEELVTQTMEKLKFQKIKSMSDPKENAYLSIVQLRDIFLSDIVDLKYKNQLWSEVVKYLEHNNSNIKSNLTEIRGEIMKCWEWIGPMELNEPKDSAENKI
With B1, the binding entry in experiment [1] is recorded as “binds”.

B2: Heh1-L^6HA, Q03707 1-834 (protein)
chain: MNSDLEYLEDGFDPNSMKVATLRRILVENNVDFPSNARKNALVGLFDEKVKPQIPQLRKMYLNVRPSDEGIVKMDRPSSSPSIASPRRSRRARREKSASPMAKQFKKNRILDDVSNDDDDDDDDDDDNDKKDDPLIVPSGTDTDEVDDEEDDVITSSSNKSDTNDFQQNSDTRKKRKDPDSDDWSESNSKENKIDNKHLNLLSSDSEIEQDYQKAKKRKTSDLNQEHGNGSAILGKLSVKTPIKNTNRKPVSMDNFNDSLTSSGTENDPFVPNIRHNPKELGTANGTGHSTPLSKLKVSASFADKLPQKEVPSTILVPEVEQQEPSQSERTPSLFSSEGSGSESEAPLLPEITTPGPHQPMGNTSNNVVEMIDTDSSNLVSDEDEVLVPTRIETPQLPTEKDVEKCEARVQELQEEVNEQLEHENGSEFDVKQGSGKVGNRHKFKRALKFLSKSLLALFLFCIFIVIPLLFGLWYREQRLLIGYCGHEVPSHRVSGNSFEFIQKLDNLLQDYRPKCIPCPPNGICYPYLKLKCKPDYKLAPSRLDFLEIIPAQGKCVKDDKKQQLVSEVVEKSLEFLRAKNAQISCGDGKDDIESGMTEDALYQIFNEARAPWIRDDEFEDLWIQVIKDLTEEPEILWRQLSPTDNNIGGNSNNIIKTNDVPRQKRHLPEKFISKTRNFRSTSKKYIGMKCRFEREIYQTYKKFQRPIWLMFLLIVISKVIEIKLKNYYRKKARIEELVTQTMEKLKFQKIKSMSDPKENAYLSIVQLRDIFLSDIVDLKYKNQLWSEVVKYLEHNNSNIKSNLTEIRGEIMKCWEWIGPMELNEPKDSAENKI
For B2, the binding entry in experiment [2] is listed as “binds”.
